Assay results as given in PubChem BioAssay AID2685 (National Center for Advancing Translational Sciences (NCATS), 2010).
Some of the results follow. The main result of the screen is listed elsewhere. These columns were measured beside it and carry no call. Most of these compounds were active or inconclusive in the main read-out, so they are no random draw. The note in brackets gives the kind of curve behind each potency; many fits are weak.

Experiment: qHTS Assay for Lipid Storage Modulators in Drosophila S3 Cells;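 as to cell number change: cells counted by Cell Tracker Red CMTPX staining in the red channel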
Conditions: BODIPY lipid droplet fluorescence, 18-24 h; for cell number change: measured here: cell count max response, cells fed with added oleic acid
Procedure, shortened: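 Drosophila S3 cells got compounds at several concentrations plus oleic acid (400 uM solution). Laser-scanning cytometry with 488 nm excitation read lipid droplets at 500-530 nm and cells at 575-640 nm. Percent activity was relative to 20 uM Triacsin C.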

[1] = measured here: lipid fluorescence (Fed channel) AC50, cells fed with added oleic acid
[2] = measured here: cell number channel AC50, cells fed with added oleic acid

| SMILES | cell number change | AC50 [1] | AC50 [2] |
| --- | --- | --- | --- |
| COc1cc(-c2nc(C(=O)NCC3CCCO3)cc3c2[nH]c2ccccc23)cc(OC)c1OC (stereo unspecified) | -22.7% | 18.4 µM [falling, partial curve] | – |
| Cc1cc(C)c2c(c1)-c1c(ssc1=S)C(C)(C)N2C(=O)CSc1nncn1C | -27.5% | 25.9 µM [falling, partial curve] | – |
| CCOc1ccc(NC(=O)CCC(=O)NNS(=O)(=O)c2ccccc2[N+](=O)[O-])cc1 | 2.33% | 29.1 µM [falling, single point] | – |
| COc1ccc(C(=O)NC(=S)NNC(=O)CCc2ccccc2)cc1 | -19.3% | 29.1 µM [falling, single point] | – |
| COc1ccccc1-c1nnc(SCC(=O)Nc2ccc3[nH]c(=O)[nH]c3c2)n1N | -9.73% | 0.00461 µM [falling, full curve, poor fit] | – |
| O=C(N/N=C/c1ccccn1)c1ccc(NC(=O)c2ccc(F)cc2)cc1 | 16.2% | 0.58 µM [falling, single point] | – |
| CCN1CC2([N+](=O)[O-])CC=C(OC)C([N+](=O)[O-])(C1)C2 (stereo unspecified) | 8.75% | 6.51 µM [falling, full curve, poor fit] | – |
| COc1ccc(CC(=O)Nc2ccncc2Cl)cc1 | 40% | – | 29.1 µM [rising, single point] |
| CC(C)c1ccc(CNn2cnnc2)cc1 | 11.7% | – | – |
| O=C(N/N=C/c1c(Cl)cccc1Cl)c1ccc(-n2cnnn2)cc1 | -2.34% | 7.31 µM [rising, partial curve, poor fit] | – |
| N#Cc1cc2c(nc1SC1CC(=O)N(c3ccccc3)C1=O)CCC2 (stereo unspecified) | 31.3% | 1.16 µM [rising, full curve] | 5.17 µM [rising, partial curve] |
| Cc1cc(NC(=O)Nc2cccc(Cl)c2)n(-c2ccccn2)n1 | 19% | 6.51 µM [rising, partial curve] | 6.51 µM [rising, single point] |
| O=C(Nc1cccc(C(F)(F)F)c1)n1cc(-c2ccccn2)c(N2CCOCC2)n1 | -26.1% | – | – |
| O=C(OCN1C(=O)c2ccccc2C1=O)c1cccs1 | -14.4% | – | – |
| CCOC(=O)N1CCN(CC(=O)c2ccc3c(c2)CCN3C(C)=O)CC1 | – | 4.11 µM [falling, single point] | 3.66 µM [falling, single point] |
| Cc1c(/C=N/NC(N)=O)c2ccccn2c1C(=O)c1ccc(F)cc1 | -19% | – | – |
| COc1cccc(C(=O)NC(C)c2ccc(Br)cc2)c1 (stereo unspecified) | 11.7% | 0.58 µM [rising, full curve] | – |
| CCOc1ccc2c(c1)-c1c(ssc1=S)C(C)(C)N2C(=O)c1ccco1 | -73.1% | 7.31 µM [falling, partial curve] | 9.2 µM [falling, partial curve] |
| CC1(C)Cc2c(cnn2-c2ccc(F)cc2)C(NC(=O)c2ccco2)C1 (stereo unspecified) | -1.52% | 29.1 µM [falling, single point] | – |
| O=c1[nH]c(/C(=N\O)c2ccccc2)no1 | -11.1% | 0.0731 µM [falling, full curve, poor fit] | – |

| SMILES | cell number change | AC50 [1] | AC50 [2] |
| --- | --- | --- | --- |
| CN(Cc1ccco1)C(=O)C(Cc1ccccc1)NS(=O)(=O)c1ccc2c(c1)CCC(=O)N2 (stereo unspecified) | -42.4% | 16.4 µM [falling, single point] | 29.1 µM [falling, single point] |
| OCCN=c1cc(-c2ccccc2)oc2ccc(Cl)cc12 | -19.1% | 0.259 µM [falling, partial curve, poor fit] | 0.164 µM [falling, full curve, poor fit] |
| C=CCn1c(O)c(N=NC(=S)Nc2cccc(C)c2)c2ccccc21 | -77% | 13 µM [falling, partial curve] | 16.4 µM [falling, partial curve] |
| O=C(COC(=O)c1cc(=O)[nH]c2ccccc12)c1cccs1 | 1.19% | 6.51 µM [falling, single point] | – |
| Cc1ncoc1C(=O)N1CCCC(C(=O)c2ccc(-c3ccccc3)cc2)C1 (stereo unspecified) | -22.8% | – | – |
| C=CCN(CC=C)Cc1c(C)[nH]c2c(C)c(C)ccc2c1=O | 0.594% | 0.184 µM [rising, full curve, poor fit] | – |
| CCOc1ccc(-c2csc(NNC3=NCCCCC3)n2)cc1 | -47.1% | 29.1 µM [falling, single point] | 29.1 µM [falling, single point] |
| Cc1csc(NC(=O)COCC(=O)O)c1-c1nc2ccccc2s1 | 43.5% | 14.6 µM [rising, single point] | 16.4 µM [rising, single point] |
| CC(C)(C)OC(=O)N/N=C\c1ccc(OC(=O)c2ccco2)cc1 | 0.903% | 0.517 µM [falling, partial curve, poor fit] | 0.58 µM [falling, single point] |
| Cc1cccc(-n2ncc3c2CCCC3NC(=O)Cc2c(C)noc2C)c1C (stereo unspecified) | -51.1% | 20 µM [falling, partial curve] | 35.5 µM [falling, single point] |
| COC(=O)c1ccc(/C=N/N2C(C)CCCC2C)cc1 (stereo unspecified) | 50.1% | 13 µM [rising, partial curve] | – |
| c1ccc(Nc2nc(-c3ccccn3)cs2)cc1 | -24.6% | 7.31 µM [rising, partial curve] | – |
| O=C(O)COc1ccccc1/C=N/NC(=O)c1cccc(S(=O)(=O)Nc2cccc(Cl)c2)c1 | 48.1% | – | 1.64 µM [rising, partial curve, poor fit] |
| Cc1cc(C)cc(N=c2c([N+](=O)[O-])nn(-c3ccc4c(c3)OCCO4)n2O)c1 | -56.8% | 29.1 µM [falling, single point] | 29.1 µM [falling, single point] |
| O=C(COC(=O)CCC(=O)c1cccs1)Nc1ccc(S(=O)(=O)N2CCOCC2)cc1 | -6.48% | 6.51 µM [rising, single point] | – |
| O=C(Nc1ccc(CN2CCOCC2)cc1)c1cc2ccccn2n1 | 10.6% | 36.6 µM [rising, partial curve, poor fit] | – |
| Cc1ccc(NS(=O)(=O)c2c(C(=O)N3CCOCC3)c(C)n(C)c2C)cc1 | 18.5% | – | – |
| CO/N=C/Cc1c([N+](=O)[O-])c(C)nn1C | 5.23% | – | 2.31 µM [falling, single point] |
| S=C1NCCOCCOCCOCCOCCN1 | – | 0.366 µM [falling, full curve] | – |
| O=C(NCCCN1CCCC1=O)c1cccc(N2CCCC2=O)c1 | – | 0.164 µM [falling, full curve, poor fit] | – |

An excerpt from above in order of formula weight, rising.

| SMILES | cell number change | AC50 [1] | AC50 [2] |
| --- | --- | --- | --- |
| c1ccc(Nc2nc(-c3ccccn3)cs2)cc1 | -24.6% | 7.31 µM [rising, partial curve] | – |
| CCOc1ccc(-c2csc(NNC3=NCCCCC3)n2)cc1 | -47.1% | 29.1 µM [falling, single point] | 29.1 µM [falling, single point] |
| Cc1ncoc1C(=O)N1CCCC(C(=O)c2ccc(-c3ccccc3)cc2)C1 (stereo unspecified) | -22.8% | – | – |

(cont.)

| SMILES | cell number change | AC50 [1] | AC50 [2] |
| --- | --- | --- | --- |
| COc1ccccc1-c1nnc2sc(C3CCCCC3)nn12 | -17.8% | 29.1 µM [rising, single point] | – |
| CCn1c(-c2cc(Cl)ccc2OC)n[nH]c1=S | -9.19% | 0.184 µM [rising, full curve, poor fit] | – |
| Cc1c(C=O)c(=O)n(-c2ccccc2)n1-c1ccccc1 | 1.88% | 0.116 µM [falling, full curve, poor fit] | – |
| Cc1c(Cl)cccc1NC(=O)C(=O)NNC(=O)c1ccccc1F | 21.5% | 2.91 µM [rising, single point] | – |
| CCOc1ccc(NC(=O)CNC(=O)c2ccc(OC)c(OC)c2)cc1 | 52.6% | 0.00517 µM [falling, full curve, poor fit] | 11.6 µM [rising, partial curve] |
| CCOc1ccc(-c2nc[nH]c2[N+](=O)[O-])cc1 | 3.38% | 8.2 µM [falling, partial curve, poor fit] | – |
| CCOC(=O)C1CCN(C(=O)c2ccc3c(Cl)c4c(nc3c2)CCCC4)CC1 | 18.5% | 0.58 µM [falling, single point] | – |
| COCCOC(=O)C1=C(C)NC(=O)NC1c1cccc(F)c1 (stereo unspecified) | -16.4% | 0.231 µM [rising, full curve, poor fit] | – |
| OCCC#Cc1ccc(CN2CCN(Cc3ccccc3)C(CCO)C2)cc1 (stereo unspecified) | 5.48% | 0.00461 µM [falling, full curve, poor fit] | – |
| COc1ccc(-c2csc3nc(-c4ccccc4OC)oc(=O)c23)cc1 | -12.1% | 18.4 µM [falling, partial curve, poor fit] | – |
| O=C(NCc1nnc2c(C(F)(F)F)cc(Cl)cn12)C1CCCC1 | -2.02% | – | – |
| Cc1cc(NC(=O)C23CCC(C)(C(=O)O2)C3(C)C)no1 (stereo unspecified) | -72% | – | 29.1 µM [falling, single point] |
| O=C(c1ccc([N+](=O)[O-])cc1)N(Cc1ccccc1)c1ccccn1 | 18.5% | – | – |
| COc1cccc(CNC(=O)C2CCN(S(=O)(=O)c3ccc4c(c3)NC(=O)CO4)CC2)c1 | -47.2% | – | 29.1 µM [falling, single point] |
| CCC(C)(C)NC(=S)Nc1ccccc1C | 4.43% | – | – |
| O=C(Nc1ccccc1F)c1ccc([N+](=O)[O-])s1 | -45.8% | 18.4 µM [falling, single point] | 32.6 µM [falling, single point] |
| CCN(CC(=O)NCc1ccc(Cl)cc1)C(=O)c1oc2ccccc2c1C | 28.6% | 0.58 µM [falling, single point] | – |
| COc1ccc(N2CCN(C(=O)COC(=O)c3cccc(S(=O)(=O)Nc4ccccc4OC)c3)CC2)cc1 | – | 5.17 µM [rising, single point] | 6.51 µM [rising, single point] |
| CCOc1ccc2nc(SCC(=O)N3c4ccccc4Sc4ccccc43)sc2c1 | 11% | 0.206 µM [rising, full curve] | 0.092 µM [rising, full curve] |
